Data from paper PMC10967385, “Essential role of obscurin kinase-1 in cardiomyocyte coupling via N-cadherin phosphorylation” (JCI Insight, 2024).
No constants are given. Whether binding was seen depends on the method and setting. In cells and extracts the contact can be indirect. Some binding calls cover weakened binding; strength is not graded here.

Amino acid sequences for entries named in this document (tags omitted). A change or cut given only in a name is not applied to a line headed by its entry. Chains listed by the source or under a name are the forms on record and can include a tag or linker. Residues count along the entry.
GST-Ncad(746-906)-WT, recombinant GST-tagged cytoplasmic domain of N-cadherin (P15116, residues 746-906): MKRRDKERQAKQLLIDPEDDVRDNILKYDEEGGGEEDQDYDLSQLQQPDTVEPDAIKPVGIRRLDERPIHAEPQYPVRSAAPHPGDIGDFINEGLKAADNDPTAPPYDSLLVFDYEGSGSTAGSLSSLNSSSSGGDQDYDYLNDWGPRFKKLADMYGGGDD
GST-Ncad(746-906)-SE, phosphomimic Ser-788-Glu GST-tagged cytoplasmic domain of N-cadherin (P15116, form named): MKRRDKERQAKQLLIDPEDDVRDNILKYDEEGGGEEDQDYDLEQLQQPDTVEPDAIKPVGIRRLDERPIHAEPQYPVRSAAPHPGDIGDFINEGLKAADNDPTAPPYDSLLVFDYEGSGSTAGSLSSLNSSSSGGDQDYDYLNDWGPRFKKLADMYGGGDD
GST-Ncad(746-906)-SA, phosphoablated Ser-788-Ala GST-tagged cytoplasmic domain of N-cadherin (P15116, form named): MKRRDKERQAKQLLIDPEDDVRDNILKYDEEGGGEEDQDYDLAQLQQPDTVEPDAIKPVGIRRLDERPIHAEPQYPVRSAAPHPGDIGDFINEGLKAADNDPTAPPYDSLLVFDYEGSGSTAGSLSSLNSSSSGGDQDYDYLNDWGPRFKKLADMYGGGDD
UniProt Q02248: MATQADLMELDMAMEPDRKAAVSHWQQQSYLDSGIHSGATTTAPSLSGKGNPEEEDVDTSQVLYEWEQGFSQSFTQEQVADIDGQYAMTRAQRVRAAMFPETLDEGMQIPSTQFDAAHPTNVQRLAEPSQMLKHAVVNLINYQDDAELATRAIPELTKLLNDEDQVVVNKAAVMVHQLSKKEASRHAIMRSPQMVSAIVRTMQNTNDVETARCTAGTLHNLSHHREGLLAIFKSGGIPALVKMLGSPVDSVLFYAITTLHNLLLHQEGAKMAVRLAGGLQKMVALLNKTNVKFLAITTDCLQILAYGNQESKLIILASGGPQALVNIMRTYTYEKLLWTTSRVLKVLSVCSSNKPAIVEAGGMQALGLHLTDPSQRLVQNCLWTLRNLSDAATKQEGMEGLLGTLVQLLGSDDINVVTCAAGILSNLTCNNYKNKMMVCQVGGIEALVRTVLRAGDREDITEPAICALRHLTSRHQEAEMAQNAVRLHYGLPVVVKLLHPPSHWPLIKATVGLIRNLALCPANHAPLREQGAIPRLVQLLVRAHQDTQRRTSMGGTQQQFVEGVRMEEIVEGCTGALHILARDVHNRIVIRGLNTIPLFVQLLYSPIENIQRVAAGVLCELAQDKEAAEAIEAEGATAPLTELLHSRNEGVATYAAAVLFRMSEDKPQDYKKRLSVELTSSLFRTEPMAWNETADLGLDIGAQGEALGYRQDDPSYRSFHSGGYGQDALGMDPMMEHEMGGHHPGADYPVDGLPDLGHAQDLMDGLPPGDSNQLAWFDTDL

Key:
Assay in all cases: pull-down; GST fusion proteins immobilised on glutathione sepharose beads via their GST tag, incubated with 1 mg of 3-month-old adult mouse heart lysate at 4°C overnight; lysis buffer 10 mM Na3PO4 pH 7.2, 10 mM NaN3, 120 mM NaCl, 1 mM CaCl2, 1% NP-40; immunoblot of eluates; only the target purified
[1] = target: GST-Ncad(746-906)-SE, phosphomimic Ser-788-Glu GST-tagged cytoplasmic domain of N-cadherin (mouse) (UniProt P15116)
[2] = target: GST-Ncad(746-906)-WT, recombinant GST-tagged cytoplasmic domain of N-cadherin (mouse) (UniProt P15116)
[3] = target: GST-Ncad(746-906)-SA, phosphoablated Ser-788-Ala GST-tagged cytoplasmic domain of N-cadherin (mouse) (UniProt P15116)

Measured: binding

endogenous β-catenin (from UniProt Q02248 1-781)
binds: all assays above

B1: endogenous p120-catenin (protein, UniProt P30999 1-938)
chain: MDDSEVESTASILASVKEQEAQFEKLTRALEEERRHVSAQLERVRVSPQDANSLMANGTLTRRHQNGRFVGDADLERQKFSDLKLNGPQDHNHLLYSTIPRMQEPGQIVETYTEEDPEGAMSVVSVETTDDGTTRRTETTVKKVVKTMTTRTVQPVPMGPDGLPVDASAVSNNYIQTLGRDFRKNGNGGPGPYVGQAGTATLPRNFHYPPDGYGRHYEDGYPGGSDNYGSLSRVTRIEERYRPSMEGYRAPSRQDVYGPQPQVRVGGSSVDLHRFHPEPYGLEDDQRSMGYDDLDYGMMSDYGTARRTGTPSDPRRRLRSYEDMIGEEVPPDQYYWAPLAQHERGSLASLDSLRKGMPPPSNWRQPELPEVIAMLGFRLDAVKSNAAAYLQHLCYRNDKVKTDVRKLKGIPILVGLLDHPKKEVHLGACGALKNISFGRDQDNKIAIKNCDGVPALVRLLRKARDMDLTEVITGTLWNLSSHDSIKMEIVDHALHALTDEVIIPHSGWEREPNEDCKPRHIEWESVLTNTAGCLRNVSSERSEARRKLRECDGLVDALIFIVQAEIGQKDSDSKLVENCVCLLRNLSYQVHREIPQAERYQEALPTVANSTGPHAASCFGAKKGKDEWFSRGKKPTEDPANDTVDFPKRTSPARGYELLFQPEVVRIYISLLKESKTPAILEASAGAIQNLCAGRWTYGRYIRSALRQEKALSAIAELLTSEHERVVKAASGALRNLAVDARNKELIGKHAIPNLVKNLPGGQQNSSWNFSEDTVVSILNTINEVIAENLEAAKKLRETQGIEKLVLINKSGNRSEKEVRAAALVLQTIWGYKELRKPLEKEGWKKSDFQVNLNNASRSQSSHSYDDSTLPLIDRNQKSDKKPDREEIPMSNMGSNTKSLDNNYSTLNERGDHNRTLDRSGDLGDMEPLKGAPLMQKI
binds: all assays above
